Laboratory results: PubChem BioAssay AID1347076 (National Center for Advancing Translational Sciences (NCATS), 2019)
The whole screen tested about 400,000 compounds, of which about 13,000 (3.2%) were called active. Inconclusive means that the source gave no clear call. Such entries were picked first, then a sample of the others. Calls follow the shape of the dose curve; as a rule, active = well fitted cell-killing curve with a large enough effect; inconclusive = small, poorly fitted or top-dose-only effect, or effect the other way; inactive = flat fitted curve, though single readings scatter. Where the call is inconclusive, the potency comes from a doubtful curve fit.

Test: qHTS assay for MDR1-selective chemotherapeutics: Primary screen using the drug-selected MDR subline cells KB-V1; also: nearly all actives have a fitted effect of over 60% in size
Details: KB-V1 MDR cells viability, CellTiter-Glo, 72 h; series mostly up to 46.1 µM
How it was run: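 KB-V1 MDR subline cells in DMEM (phenol-red free, 10% FBS) exposed to compounds in qHTS concentration series for 72 h at 37 degrees C. Viability read by CellTiter-Glo luminescence; concentration-effect curves fitted after normalization and correction.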
Potency is read from the fitted curve at half-maximal effect.

Row | SMILES | Potency
1 | O=C1c2ccccc2CCCC12N=NCC2c1cccc2ccccc12 (stereo unspecified) | inconclusive: 29.1 µM [cytotoxic, single point]
2 | O=C(c1ccc(-c2ccccc2)cc1)N1CCC2CC1c1cc(-c3ccc4c(c3)OCO4)ccc12 (stereo unspecified) | inactive
3 | CCN(Cc1nc(-c2ccccc2)no1)C(=O)c1ccc2c(c1)OCO2 | inconclusive: 20.6 µM [cytotoxic, single point]
4 | O=C(Nc1nnc(-c2ccc(Cl)s2)o1)C1CC1 | inconclusive: 29.1 µM [cytotoxic, single point]
5 | CC(C)(C)n1nnnc1C(c1ccccc1)N1CCN(c2ncccc2C(F)(F)F)CC1 (stereo unspecified) | inconclusive: 16.4 µM [cytotoxic, single point]
6 | CCc1ccc2oc(-c3ccc(NC(=O)c4cccc(Cl)c4Cl)cc3)nc2c1 | inactive
7 | CCOc1ccc(/C=C/c2nc(C#N)c(NCCCN(C)C)o2)cc1 | inactive
8 | Cc1cccc(NC(=O)CN2CCC(C(=O)c3ccc4c(c3)OCCO4)CC2)c1 | active: 11.6 µM
9 | COc1ccccc1N1CCN(C(=O)c2cc3c(-c4ccccc4F)nn(C)c3s2)CC1 | inconclusive: 3.66 µM [cytotoxic, full curve]
10 | Cc1ccc(-n2c(=O)c3c(cnn3C)n(CC(=O)Nc3cccc(C)c3)c2=O)cc1 | inactive
11 | Cn1c(=O)n(C)c2cc(N3CCOCC3)c(NS(=O)(=O)c3ccc(Cl)cc3)cc21 | inconclusive: 0.651 µM [cytotoxic, full curve]
12 | COc1ccccc1N1CCN(C(=O)CN(CCc2ccccc2)S(C)(=O)=O)CC1 | active: 9.2 µM
13 | COc1ccc(OC)c(N(CCN2C(=O)c3ccccc3C2=O)C(=O)CCl)c1 | inconclusive: 23.1 µM [cytotoxic, single point]
14 | CC1=CC(=C(C#N)c2nc3ccccc3s2)C=C(C)N1c1ccc(F)cc1 | inactive
15 | CC(C)C(=O)N1CCC1(C)C(=O)Nc1cccc(Oc2ccccc2)c1 (stereo unspecified) | inconclusive: 16.4 µM [cytotoxic, partial curve]
16 | O=C(Nc1ccc(Br)cn1)c1cccc(-c2cc3ccccc3oc2=O)c1 | inactive
17 | CC(SC(=S)N1CCOCC1)C(=O)O (stereo unspecified) | inconclusive: 29.1 µM [cytotoxic, single point]
18 | Cc1cc(=O)n(Cc2c(F)cccc2Cl)c2c1c(C)nn2C | inactive
19 | Cc1ccc(OCc2n[nH]c(=S)n2-c2ccccc2)cc1 | inconclusive: 29.1 µM [rising, single point]
20 | CCCCOc1cccc(-c2cc(C(=O)NNC(=S)NCC)c3ccccc3n2)c1 | active: 20.6 µM
21 | c1sc2[n+](c1C13CC4CC(CC(C4)C1)C3)CCS2 | inconclusive: 29.1 µM [rising, single point]
22 | O=C(Nc1cccc(-c2nn[nH]n2)c1)c1cccs1 | inconclusive: 9.2 µM [rising, partial curve]
23 | CC[n+]1ccccc1/C=C/Nc1ccccc1 | inconclusive: 11.6 µM [rising, partial curve, poor fit]

A few values from the results shown.
Potency, O=C(Nc1cccc(-c2nn[nH]n2)c1)c1cccs1 reads inconclusive: 9.2 µM [rising, partial curve]
Potency, COc1ccccc1N1CCN(C(=O)c2cc3c(-c4ccccc4F)nn(C)c3s2)CC1 reads inconclusive: 3.66 µM [cytotoxic, full curve]

Carrying on.

Row | SMILES | Potency
24 | C=CCn1c(C(CCCC)CC(O)COCCC)n[nH]c1=S (stereo unspecified) | inconclusive: 29.1 µM [rising, single point]
25 | CCC/C(=N\NC(=O)c1ccc(OC)c(OC)c1)c1ccccc1 | inconclusive: 13 µM [cytotoxic, partial curve, poor fit]
26 | Cc1cccc(NC(=O)C2CCN(S(=O)(=O)c3ccc4c(c3)OCCO4)CC2)n1 | inconclusive: 0.651 µM [cytotoxic, full curve, poor fit]
27 | COc1ccc2c(c1)CC(C(=O)NCCc1ccc(S(N)(=O)=O)cc1)CO2 (stereo unspecified) | inactive
28 | O=C(Nc1ccn(Cc2ccccc2F)n1)c1ccc(COc2ccccc2Cl)cc1 | active: 2.59 µM
29 | O=S1(=O)N[C@H](c2ccccc2)C[C@H](c2ccc(C(F)(F)F)cc2)O1 | inactive
30 | CN(C)C(CNC(=O)c1ccc2c(=O)n(-c3ccccc3F)c(=S)[nH]c2c1)Cc1ccccc1 (stereo unspecified) | inactive
31 | COc1cc2ccccc2cc1C(=O)N1CCN(c2nc3c(F)cc(F)cc3s2)CC1 | inactive
32 | COc1cc(NS(=O)(=O)c2ccc3c(c2)oc(=O)n3C)cc(OC)c1OC | inconclusive: 29.1 µM [cytotoxic, single point]
33 | COc1cc2ccccc2cc1C(=O)N(CCN(C)C)c1nc2ccc(C)cc2s1 | inconclusive: 23.1 µM [cytotoxic, partial curve]
34 | O=C(COC(=O)c1ccccc1)NC1CCCCCC1 | inactive
35 | O=S(=O)(c1ccc(F)cc1)c1nc(-c2ccc(F)cc2)oc1NCCN1CCOCC1 | inconclusive: 2.91 µM [cytotoxic, full curve, poor fit]
36 | CCCC(C)C(=O)Nc1ncc(S(=O)(=O)c2ccc([N+](=O)[O-])cc2)s1 (stereo unspecified) | inconclusive: 32.6 µM [cytotoxic, single point]
37 | CCCCn1c(N)c(N(CC)C(=O)C2=COCCO2)c(=O)[nH]c1=O | inactive
38 | Cc1ccc(CNC(=O)CCc2nc3cccnc3n2Cc2ccccc2)cc1 | inactive
39 | CN(CC(=O)Nc1ccc(Cl)c(S(=O)(=O)N2CCOCC2)c1)C(=O)c1cccs1 | inactive
40 | O=C(c1noc2c1CCCC2)N1CCC(CO)(Cc2ccccc2Cl)CC1 | inactive
41 | CC(=O)Nc1cccc(-c2cc(NC=O)c3ncc(-c4cccc(C(C)=O)c4)n3c2)c1 | inconclusive: 25.9 µM [cytotoxic, single point]
42 | COc1ccc(-c2cc3ccc(O)c(CN4CCCCC4C)c3oc2=O)cc1OC (stereo unspecified) | inconclusive: 25.9 µM [rising, single point]
43 | CCc1nnc(NC(=O)CSc2nc3cc4c(cc3cc2CC)OCCO4)s1 | inactive
44 | CC(C)C[C@H]1CNC(=S)N1C[C@H]1CCCN1C[C@H](CC(C)C)N1C[C@H](Cc2ccc(O)cc2)N(CCc2ccccc2)C1=S | inconclusive: 29.1 µM [cytotoxic, single point]
45 | O=C(CSc1nncs1)NCCCc1ccccc1 | inconclusive: 20.6 µM [rising, single point]
46 | N#CC1(P(=O)(c2ccccc2)c2ccccc2)CCCC1 | inconclusive: 10.3 µM [cytotoxic, partial curve, poor fit]

From compound 28 to 29, as listed above:
Row | SMILES | Potency
28 | O=C(Nc1ccn(Cc2ccccc2F)n1)c1ccc(COc2ccccc2Cl)cc1 | active: 2.59 µM
29 | O=S1(=O)N[C@H](c2ccccc2)C[C@H](c2ccc(C(F)(F)F)cc2)O1 | inactive
